PubChem BioAssay AID2551 (National Center for Advancing Translational Sciences (NCATS), 2010)
The campaign covered roughly 310,000 compounds. About 17,000 (5.5%) were called active. The shares of active, inactive and inconclusive entries below differ from those in the screen. Calls come from the whole dose curve; as a rule, active = well fitted inhibition curve with a large enough effect; inconclusive = small, poorly fitted or top-dose-only effect, or effect the other way; inactive = no such curve, though single readings can be large or run the other way. Potencies beside an inconclusive call are fits to weak or partial responses and may not hold up.
% is set by controls: 0 for no effect and ±100 for the full control effect; potency is the fitted concentration of half-maximal effect.
Note: nearly all actives have a fitted effect of over 60% in size.

Sequences of proteins named here, by UniProt entry; tags and fusion partners are left off. A change or cut given only in a name is not applied to a line headed by its entry.
UniProt P51450: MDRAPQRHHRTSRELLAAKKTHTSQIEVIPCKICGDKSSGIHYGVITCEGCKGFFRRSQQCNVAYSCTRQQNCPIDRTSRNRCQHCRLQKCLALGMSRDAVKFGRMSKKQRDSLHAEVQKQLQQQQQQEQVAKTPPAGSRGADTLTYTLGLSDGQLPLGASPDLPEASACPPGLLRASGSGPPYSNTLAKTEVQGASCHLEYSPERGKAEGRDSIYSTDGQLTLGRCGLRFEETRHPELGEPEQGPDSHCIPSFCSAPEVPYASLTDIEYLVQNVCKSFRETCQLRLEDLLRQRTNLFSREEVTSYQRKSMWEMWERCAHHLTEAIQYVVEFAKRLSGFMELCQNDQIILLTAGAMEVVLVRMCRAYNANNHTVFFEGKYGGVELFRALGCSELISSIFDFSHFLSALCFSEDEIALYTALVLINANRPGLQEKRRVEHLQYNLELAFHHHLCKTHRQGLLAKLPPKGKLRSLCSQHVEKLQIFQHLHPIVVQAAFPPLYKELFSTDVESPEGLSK

The compounds below were run against Nuclear receptor ROR-gamma (Mus musculus) (UniProt P51450) (assay: qHTS for inhibitors of ROR gamma transcriptional activity). Details: Drosophila S2 Gal4-RORgamma UAS-luciferase reporter, 20 h; activity change, negative = inhibition: at 53.6 µM (top of the series).
Method in brief: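 In this cell-based reporter format, copper sulfate (700 uM final) drives Gal4–ROR gamma fusion expression from a metallothionein promoter in Drosophila Schneider cells; compounds preincubated 1 hr, reporter read after 20 hr at ambient temperature.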
For `O=C(N/N=C/c1cccc2nccnc12)c1ccccc1O`, the Potency was active: 2.51 µM.
`CC(=O)N1CCc2c(sc3c2c(=O)n(-c2ccccc2)c(=O)n3Cc2ccccc2Cl)C1` was tested, and the Potency was inconclusive: 2.24 µM [activator, full curve].
For `CCn1cc(C(=O)NCCc2ccc(Cl)cc2)c(=O)c2cc(S(=O)(=O)N(C)C)ccc21`, the Potency was inconclusive: 17.8 µM [activator, single point].
`S=C(NCCC(c1ccccc1)c1ccccc1)Nc1cccc(Cl)c1` was tested, and the Potency was active: 5.01 µM.
With `O=C(Cn1c(=S)[nH]c2ccccc2c1=O)N1CCN(c2ccc(F)cc2)CC1` the Potency was inconclusive: 35.5 µM [inhibitor, single point].
For `CCN(c1cccc(C)c1)S(=O)(=O)c1ccc2c(c1)CCCN2C(C)=O`, the Potency was “inactive”.
In the case of `CC1(C)Cc2nc3sc4c(NCCO)ncnc4c3cc2CS1`, the Potency is reported as active: 3.98 µM.
In the case of `Cc1ccc(S(=O)(=O)CCC(=O)NCCN2C(=O)S/C(=C\c3ccccc3)C2=O)cc1`, the Potency is reported as inconclusive: 35.5 µM [activator, single point].
With `CCNC(=S)N1CCN(CCNC2=CC(=O)CC(C)(C)C2)CC1` the Potency was inconclusive: 35.5 µM [activator, single point].
`COc1cccc(NC(=S)N2CCC(c3ccc(C)cc3)C2)c1` (stereo not drawn) was tested, and the Potency was inconclusive: 15.8 µM [inhibitor, single point].
With `Cc1cccc(NC(=S)N(C)C2CCCCC2)c1` the Potency was active: 11.2 µM.
`N#CCSc1nnc(-c2sc3ccccc3c2Cl)o1` was tested, and the Potency was inconclusive: 7.94 µM [activator, partial curve].
`Cc1cccc(CCN(C(=O)Cc2cccs2)C(C(=O)NC2CCCCC2)c2cccnc2)c1` (stereo not drawn) was tested, and the Potency was “inactive”.
With `CC1=C(C(=O)OCC2CCCO2)C(c2ccsc2)C2=C(CCCC2=O)N1` (stereo not drawn) the Potency was “inactive”.
In the case of `Cc1ccc(N(CC2CO2)S(=O)(=O)c2ccccc2[N+](=O)[O-])cc1` (stereo not drawn), the Potency is reported as “inactive”.
For `Cc1cc(C(=O)N/N=C/c2ccc(OCc3ccccc3)cc2)c(C)o1`, the Potency was inconclusive: 14.1 µM [inhibitor, single point].
In the case of `NC(=O)C1(N2CCCCC2)CCN(Cc2ccc(F)cc2)CC1`, the Potency is reported as inconclusive: 31.6 µM [inhibitor, single point].
`O=c1oc(-c2ccccc2)cc(Cl)c1Cl` was tested, and the Potency was active: 11.2 µM.
With `C=C1C(=O)[C@@]23[C@H](O)C[C@@H]4C(C)(C)CC[C@H](O)[C@]4(C)[C@@H]2C[C@H](O)[C@@H]1[C@H]3O` the Potency was active: 2.51 µM.
With `CCOC(=O)c1ccc(NC(=O)Cc2coc3cc4c(cc23)CCC4)cc1` the Potency was inconclusive: 35.5 µM [activator, single point].
For `CCCCCCCC1=Cc2ccccc2C(CC(C)=O)N1C(=O)OC` (stereo not drawn), the activity change, negative = inhibition was inactive: 15.2% [at 10 µM].
For `COc1ccccc1CN1CC(C(=O)NCc2c(F)ccc(C)c2F)CCC1=O` (stereo not drawn), the Potency was inconclusive: 6.31 µM [inhibitor, single point].
In the case of `O=[N+]([O-])c1ccc(N/N=C/c2cccc(O)c2O)c(S(=O)(=O)N2CCOCC2)c1`, the Potency is reported as “inactive”.
With `O=c1c(O)c(-c2cccc(O)c2)oc2ccccc12` the Potency was inconclusive: 22.4 µM [inhibitor, partial curve].
`COc1c(C)cc(Br)cc1C(=O)NC(=S)Nc1ccc(Cl)c(C(=O)O)c1` was tested, and the Potency was inconclusive: 17.8 µM [activator, single point].
For `O=C(Sc1nnc(-c2ccccc2)o1)N1c2ccccc2Sc2ccccc21`, the Potency was inconclusive: 22.4 µM [inhibitor, single point].
With `O=[N+]([O-])c1ccc(N/N=C/c2cn(-c3ccccc3)nc2-c2ccccc2)cc1` the Potency was inconclusive: 0.112 µM [activator, full curve, poor fit].
`O=S(=O)(c1ccccc1)c1ccc(N2CCCCCC2)cc1` was tested, and the Potency was inconclusive: 35.5 µM [activator, single point].
For `Cc1nc2c(-c3ccccc3)c(C)[nH]n2c(=O)c1Cl`, the Potency was inconclusive: 31.6 µM [inhibitor, single point].
With `COc1ccc(CN2C(=S)NC(C)(C)CC2(C)O)cc1` (stereo not drawn) the Potency was active: 12.6 µM.
For `O=c1c2cc(Cl)ccc2nc(-c2ccc([N+](=O)[O-])cc2)n1O`, the Potency was inconclusive: 22.4 µM [inhibitor, single point].
In the case of `Cn1c(/C(C#N)=C(\O)CN2CCN(Cc3ccccc3)CC2)nc2ccccc21`, the Potency is reported as active: 5.62 µM.
`S=C(Nc1cccc(Cl)c1)Nc1ccc2c(c1)OCCO2` was tested, and the Potency was inconclusive: 35.5 µM [inhibitor, single point].
`Cc1ccc(C(=O)NNC(=O)/C=C\C(=O)O)cc1` was tested, and the Potency was inconclusive: 2.82 µM [inhibitor, partial curve, poor fit].
`COc1ccccc1NC(=O)C(C)N(C)Cc1ccc(Cl)s1` (stereo not drawn) was tested, and the Potency was inconclusive: 17.8 µM [activator, single point].
For `CCOc1ccc(S(=O)(=O)Nc2nc3ccccc3nc2Nc2ccc(N3CCOCC3)cc2)cc1`, the Potency was inconclusive: 14.1 µM [activator, partial curve].
In the case of `O=C(Nc1nnc(-c2ccc(Cl)cc2)o1)c1nc2ccccc2s1`, the Potency is reported as active: 4.47 µM.
With `CC1CCN(C(=O)CNC(=O)c2ccc(Cl)cc2Cl)CC1` the Potency was inconclusive: 17.8 µM [activator, partial curve].
`O=C(CCSc1ccccc1)N1CCOCC1` was tested, and the Potency was inconclusive: 35.5 µM [inhibitor, single point].
`Cc1ccc(N2CC(C(=O)N3CCCCCC3)CC2=O)cc1` (stereo not drawn) was tested, and the Potency was “inactive”.
For `CCC(C)(C)c1ccc(OCCCC[n+]2ccc(C)cc2)c(C(C)(C)CC)c1`, the Potency was inconclusive: 39.8 µM [inhibitor, partial curve, poor fit].
With `Cc1cc(C)cc(OC2CCCCC2NS(=O)(=O)c2ccccc2)c1` (stereo not drawn) the Potency was inconclusive: 35.5 µM [inhibitor, single point].
In the case of `NC[C@@H]1O[C@H](O[C@H]2[C@H](O)[C@H](O[C@@H]3O[C@H](CO)[C@@H](O)[C@H](N)[C@@H]3O)[C@@H](N)C[C@H]2N)[C@@H](O)[C@H](O)[C@@H]1O`, the activity change, negative = inhibition is reported as inactive: 22.8% [at 2.98 µM].
`CCOC(=O)c1c(NC(=O)CSc2ncnc3[nH]ncc23)sc2c1CCC(C)C2` (stereo not drawn) was tested, and the Potency was “inactive”.
With `Cc1nc2ccccc2c(=O)n1N(c1ccccc1)c1ccccc1` the Potency was “inactive”.
In the case of `O=C(CSc1nnc2c(Cl)cc(Cl)cn12)N1CCN(c2ccc(F)cc2)CC1`, the Potency is reported as “inactive”.
In the case of `CCN(CC)c1ccc(/C=N/Nc2nc3ccccc3[nH]2)c(O)c1`, the Potency is reported as active: 3.55 µM.
In the case of `COC(=O)C(OC(=O)c1ccc(OC)cc1)C(=O)OC`, the Potency is reported as inconclusive: 0.0056 µM [inhibitor, full curve, poor fit].
`Nc1nnc(SCc2coc(-c3ccc(Cl)cc3)n2)s1` was tested, and the Potency was inconclusive: 4.47 µM [activator, single point].
With `Cc1cccc(NC(=O)CCn2ccnc2C)c1` the Potency was inconclusive: 17.8 µM [activator, single point].
For `CCOc1ccc(Nc2nc(N)nc(CCl)n2)cc1`, the Potency was inconclusive: 35.5 µM [inhibitor, single point].
`CCOC(=O)CNC(=O)/C(=C\c1ccc(F)cc1)NC(=O)c1ccccc1` was tested, and the Potency was “inactive”.
`CC(C)C[C@H](NC(=O)c1[nH]cnc1C(=O)N[C@@H](Cc1ccccc1)C(=O)OCc1ccccc1)C(=O)OCc1ccccc1` was tested, and the Potency was active: 11.2 µM.
In the case of `O=C(COc1ccc2ccccc2c1Br)NNC(=O)Nc1ccccc1`, the Potency is reported as “inactive”.
In the case of `O=C(OCC(=O)N1CCN(C(=O)c2ccco2)CC1)c1ccccc1Cc1ccccc1`, the Potency is reported as inconclusive: 12.6 µM [activator, partial curve].
With `C/C(=C\c1ccccc1)C(=O)Nc1ccc(Cl)cn1` the Potency was inconclusive: 10 µM [inhibitor, partial curve].
In the case of `O=C(c1ccc(-c2ccccc2)cc1)C1CCCN(C(=O)c2cncs2)C1` (stereo not drawn), the Potency is reported as inconclusive: 28.2 µM [activator, single point].
In the case of `Cc1cc(C)cc(N(CC(=O)Nc2ccc(C)cc2Cl)S(=O)(=O)c2c(C)[nH]c(=O)[nH]c2=O)c1`, the Potency is reported as inconclusive: 6.31 µM [inhibitor, single point].
`Cn1cc(Cl)c(C(=O)N/N=C/c2ccc3c4c(cccc24)CC3)n1` was tested, and the Potency was inconclusive: 12.6 µM [inhibitor, single point].
For `O=C(Cn1cc(C(=O)C(F)(F)F)c2ccccc21)N1CCOCC1`, the Potency was “inactive”.
For `Cc1cc(C)c(NC(=S)NC(NC(=O)c2ccccc2)C(Cl)(Cl)Cl)c(C)c1` (stereo not drawn), the Potency was active: 20 µM.
`CCOC(=O)C(C)On1c(-c2ccccc2)nc2ccc([N+](=O)[O-])cc21` (stereo not drawn) was tested, and the Potency was inconclusive: 2.51 µM [activator, partial curve, poor fit].
For `CC1CCN(C(=O)CSc2nnc(Cc3ccccc3)o2)CC1`, the Potency was inconclusive: 0.0316 µM [inhibitor, full curve].
For `Cc1ccc(C)c(NC(=O)C(=O)NCCc2c[nH]c3ccccc23)c1`, the Potency was inconclusive: 7.08 µM [activator, partial curve, poor fit].
In the case of `CCc1ccccc1N(CC(=O)NCc1ccccc1)C(=O)CCC(=O)Nc1ccccn1`, the Potency is reported as inconclusive: 22.4 µM [activator, single point].
In the case of `CC(=O)Oc1cc2c(c(C)c1OC(C)=O)CC=C1[C@]3(C)CC[C@]4(C)CC[C@@](C)(C(=O)O)CC4[C@]3(C)CC[C@]12C` (stereo partly drawn), the Potency is reported as inconclusive: 35.5 µM [inhibitor, single point].
For `COc1ccccc1NC(=S)N(c1ccccc1)C(C)C`, the Potency was inconclusive: 11.2 µM [inhibitor, partial curve].
With `CSc1ccccc1NC(=O)CSc1nncs1` the Potency was inconclusive: 8.91 µM [activator, partial curve].
